This experiment in a line: qHTS Assay for Modulators of Lamin A Splicing. To be noted: HeLa LMNA splicing GFP/RFP minigene ratio, 48 h. A digest of the protocol:
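Read-out is the ratio of GFP to DsRed2 object intensity, acquired by 488 nm laser-scanning cytometry on HeLa lamin A-EGFP minigene reporter cells. Compound incubation 48 hrs at 37 °C in Opti-MEM with 2% FBS; DMSO 0.5% final.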
In general terms: qHTS replaces the single test concentration by a dilution series.

Where [1] appears, read: measured here: GFP splicing reporter channel.
The mark [2] stands for this setting: measured here: RFP viability control channel.

Some of the results follow. The main result of the screen is listed elsewhere. These columns were measured beside it and carry no call. Compounds called inactive in the main read-out are mostly missing here. Potencies come from curve fits of mixed quality, noted in brackets.

As for `COCCNC(=O)COC(=O)CSCc1nc2ccccc2s1`, the AC50 was 5.62 µM [falling, single point] under setting [1] and 5.62 µM [falling, single point] under setting [2].
Consider `COCCCNCCCOc1ccc(Cl)cc1C(C)(C)C`, for which, under setting [2], the AC50 is 31.6 µM [rising, single point].
For the compound `COc1cc(C(=S)N2CCOCC2)ccc1OS(=O)(=O)c1ccccc1[N+](=O)[O-]`, the AC50 under setting [2] was 3.16 µM [rising, partial curve, poor fit].
For the compound `COc1cccc(CNC(=O)Cn2ccc3cc(S(=O)(=O)N4CCCC4)ccc32)c1`, the AC50 under setting [1] was 35.5 µM [rising, partial curve, poor fit] and the AC50 under setting [2] was 20 µM [rising, single point].
As to `O=C(Cc1cccs1)Nc1nnc(SCc2ccc(F)cc2)s1`, under setting [2], the AC50 is 2 µM [rising, full curve].
Still for that read-out and setting: for `Cc1sc2nc(CSCC(=O)Nc3ccccc3C#N)[nH]c(=O)c2c1C` the value was 2.24 µM [rising, partial curve, poor fit].
`Cc1ccc2c(Cl)c(C(=O)Nc3ccc4c(c3)OCO4)sc2c1`: the AC50 under setting [1] is 12.6 µM [rising, partial curve, poor fit].
Consider `CC(=O)N(CCCc1ccc(C(C)(C)C)cc1)CCCN(C)C`, for which the AC50 under setting [2] was 22.4 µM [rising, single point].
The same measure, in the same setting: to `COc1ccc(Cl)c(N2CCN(CCCNC(=O)Nc3ccc(C)cc3)CC2)c1` belongs 35.5 µM [rising, single point].
Regarding `O=C(CSc1ncnc2sc3c(c12)CCCC3)c1ccco1`, the AC50 is 14.1 µM [rising, single point] under setting [1] and 35.5 µM [rising, single point] under setting [2].
For the compound `Cc1ccc(CN(Cc2ccco2)c2cnc(S(C)(=O)=O)nc2C(=O)Nc2ccc(Br)cc2)o1`, under setting [1], the AC50 was 0.0355 µM [rising, full curve, poor fit].
In the case of `CC(=O)Nc1ccc(S(=O)(=O)N2CCc3c(Cl)cccc3C2)cc1`, under setting [2], the AC50 was 11.2 µM [rising, single point].
For the compound `CN(C(=O)CSc1nc2ccc(Br)cc2c(=O)n1Cc1ccco1)C1CCS(=O)(=O)C1` (stereo unspecified), the AC50 under setting [1] is 28.2 µM [falling, partial curve].
Turning to `Cc1nn(-c2ccccc2)c2sc(C(=O)NC3CCCCC3)cc12`, under setting [2], the AC50 was 12.6 µM [rising, single point].
As to `O=C1CC(NCc2ccc(F)cc2)C(=O)N1c1ccccc1` (stereo unspecified), the AC50 is 14.1 µM [rising, partial curve, poor fit] under setting [1] and 0.00447 µM [falling, full curve, poor fit] under setting [2].
Take `COc1cccc(-c2nnc(NC(=O)c3ccc(S(=O)(=O)N4CCOCC4)cc3)o2)c1`: the AC50 under setting [1] is 10 µM [rising, partial curve].
Take `c1nc(N2CCNCC2)c2cc(-c3ccc4c(c3)OCO4)ccc2n1`: the AC50 under setting [2] is 35.5 µM [rising, single point].
As to `Cc1ccc(-n2sc3ccccc3c2=O)cc1S(=O)(=O)N1CCCCC1`, under setting [2], the AC50 was 31.6 µM [rising, single point].
As to `CC(=O)Nc1ccc(S(=O)(=O)NCC2CCC(C(=O)NCCCOC(C)C)CC2)cc1` (stereo unspecified), the AC50 under setting [1] was 0.0631 µM [rising, full curve, poor fit].
Turning to `Cc1occc1C(=O)Nc1nnc(-c2cccs2)s1`, the AC50 was 0.0316 µM [rising, full curve] under setting [1] and 6.31 µM [rising, partial curve, poor fit] under setting [2].
For `CCCCc1nc(Cl)c(CO)n1Cc1ccc(-c2ccccc2-c2nn[nH]n2)cc1`, the AC50 under setting [1] was 0.708 µM [rising, partial curve, poor fit].
On to `CCCOc1ccc(S(=O)(=O)n2cc(Br)c(=O)[nH]c2=O)cc1`, for which the AC50 under setting [2] is 0.251 µM [falling, partial curve].
Still for that read-out and setting: to `COc1ccc(S(=O)(=O)NCCSc2ccc(C)cc2)cc1OC` belongs 22.4 µM [rising, single point]; to `CN(C#N)c1nccc(-c2cccs2)n1`, 5.62 µM [falling, single point].
In the case of `COC(=O)/C=C1/SC(=Nc2ccc(C)cc2C)NC1=O`, the AC50 under setting [1] is 14.1 µM [falling, single point] and the AC50 under setting [2] is 28.2 µM [falling, partial curve].
Take `CSc1nc(C)cc(Oc2ccc(OCCOc3ccccc3)nn2)n1`: the AC50 under setting [1] was 11.2 µM [rising, single point].
For `Cc1ccccc1-n1nc(C)c2cc(C(=O)NCc3cccnc3)sc21`, under setting [2], the AC50 was 17.8 µM [rising, partial curve, poor fit].
In the case of `CCCCC(CC)COC(=O)/C=C/c1ccc(OC)cc1` (stereo unspecified), the AC50 under setting [1] is 35.5 µM [falling, single point] and the AC50 under setting [2] is 2.82 µM [rising, full curve, poor fit].
For `c1cncc(-c2nc(-n3ccnc3)c3ccccc3n2)c1`, the AC50 is, setting by setting: under setting [1], 11.2 µM [falling, partial curve]; under setting [2], 25.1 µM [falling, single point].
Take `COc1cc(OC)cc(C(=O)Nn2cc(C(=O)Nc3ccccc3F)c3ccccc3c2=O)c1`: under setting [2], the AC50 was 35.5 µM [rising, single point].
As to `COC(=O)c1sccc1S(=O)(=O)N1CCN(c2cccc(C)c2C)CC1`, the AC50 under setting [1] is 0.0562 µM [falling, full curve].
As for `CC(=O)N(c1ccccc1)c1nc(/C=C/C(=O)Nc2c(C)cc(C)cc2C)cs1`, the AC50 under setting [2] is 7.08 µM [rising, partial curve, poor fit].
Turning to `CCOc1ccc2nc(C(=O)N3CCCC(C)C3)sc2c1` (stereo unspecified), the AC50 under setting [1] was 1.78 µM [rising, partial curve, poor fit].
`CC1CCCCC1NC(=O)COC(=O)c1ccccn1` (stereo unspecified): under setting [2], the AC50 was 20 µM [falling, single point].
As for `CCN(CC)CCc1nc(-c2ccccc2)no1`, the AC50 under setting [1] was 6.31 µM [falling, single point].
With `c1csc(-c2nc3c4ccccc4c4ccccc4c3[nH]2)c1`, the AC50 under setting [1] is 20 µM [rising, single point] and the AC50 under setting [2] was 15.8 µM [rising, single point].
In the case of `O=S(=O)(NCc1ccc2c(c1)OCO2)c1cccc2cccnc12`, the AC50 is, setting by setting: under setting [1], 11.2 µM [rising, partial curve]; under setting [2], 11.2 µM [rising, single point].
As for `CCOc1ccccc1Nc1ncccc1C(=O)N1CCCC1`, the AC50 is 3.55 µM [rising, full curve, poor fit] under setting [1] and 8.91 µM [rising, partial curve] under setting [2].
Turning to `Brc1cccc2sc(N3CCN(c4ccccc4)CC3)nc12`, the AC50 under setting [1] is 14.1 µM [falling, single point].
As to `O=C(Nc1nccs1)c1cccc(N2C(=O)C3C4C=CC(C4)C3C2=O)c1` (stereo unspecified), the half-maximal activity concentration (AC50) runs as follows: under setting [1], 3.98 µM [rising, partial curve]; under setting [2], 0.631 µM [rising, full curve, poor fit].
Consider `Cc1ccc(NC(=O)N2CCC(NC(=O)C(C)(C)C)CC2)cc1`, for which the AC50 under setting [1] was 0.00316 µM [falling, full curve, poor fit] and the AC50 under setting [2] was 0.00631 µM [falling, full curve, poor fit].
For `CNC(=S)N(CCc1c(C)[nH]c2ccc(Cl)cc12)Cc1cccs1`, the AC50 was 31.6 µM [rising, single point] under setting [1] and 20 µM [rising, single point] under setting [2].
On to `CCOc1ccc(-c2cc(CCCC(=O)Nc3cccc(OC)c3)no2)cc1`, for which the AC50 under setting [2] was 3.16 µM [rising, full curve, poor fit].
On to `CCOc1ccc(CCNC(=O)CSc2cc(=O)n(C)c3ccccc23)cc1OCC`, for which the AC50 under setting [2] was 0.447 µM [rising, full curve, poor fit].
On to `COc1ccccc1-c1cc(Nc2ccc(F)cc2)ncn1`, for which the AC50 is 22.4 µM [falling, single point] under setting [1] and 22.4 µM [falling, single point] under setting [2].
With `CN(c1ccccc1)S(=O)(=O)c1ccc(NC(=O)c2ccccc2)cc1`, the AC50 under setting [2] was 35.5 µM [rising, single point].
As to `CC(=O)O[C@@]1(C(C)=O)CCC2C3CC(C)C4=CC(=O)CC[C@@]4(C)C3CC[C@]21C` (stereo partly specified), the half-maximal activity concentration (AC50) reads like this: under setting [1], 11.2 µM [rising, partial curve, poor fit]; under setting [2], 11.2 µM [rising, single point].
With `CC(=O)c1c(C)[nH]c(C(=O)OCC(=O)Nc2cc(Cl)ccc2[N+](=O)[O-])c1C`, the AC50 under setting [2] was 5.01 µM [rising, single point].
Regarding `Cc1cc(Oc2ccccc2F)nc(NCc2ccccc2)n1`, under setting [2], the AC50 was 25.1 µM [rising, single point].
The same measure, in the same setting: for `COc1ccccc1-n1cnc2c(c1=O)c1nc3ccccc3nc1n2CCc1ccccc1` the value was 2 µM [falling, partial curve].
`NCCCCNS(=O)(=O)c1cccc2c(Cl)cccc12`: the AC50 under setting [2] is 0.00447 µM [falling, full curve, poor fit].
For `Cc1cc2c(ncn2Cc2ccccc2)c(N)c1C`, the AC50 under setting [2] was 6.31 µM [falling, partial curve, poor fit].
`O=C(CNCc1ccc(Cl)cc1)Nc1ccc2c(c1)OCCO2`: the AC50 under setting [1] is 2.51 µM [rising, single point].
On to `O=C1CC(C(=O)Nc2ccc(F)cc2)n2cnnc2N1` (stereo unspecified), for which, under setting [2], the AC50 was 0.158 µM [rising, full curve, poor fit].
For the compound `CCOC(=O)c1c(C)[nH]c(C)c1C(=O)COC(=O)c1cc2ccccc2cc1O`, under setting [2], the AC50 is 15.8 µM [rising, single point].
Turning to `CCOc1ccccc1NC(=O)C1CCCN(S(=O)(=O)c2ccc(OC)c(C)c2)C1` (stereo unspecified), the AC50 was 20 µM [rising, single point] under setting [1] and 31.6 µM [rising, single point] under setting [2].
Take `COc1ccc(NC(=O)CCN2CCN(S(=O)(=O)c3ccc(C(C)C)cc3)CC2)cc1`: the AC50 under setting [2] is 31.6 µM [rising, single point].
Turning to `Nc1ncnc2c1c(-c1ccc(Oc3ccccc3)cc1)cn2C1CCCC1`, the AC50 is 12.6 µM [falling, partial curve] under setting [1] and 12.6 µM [falling, partial curve] under setting [2].

For orientation: AC50 means the concentration at which the activity in the assay is half-maximal.

(Values after PubChem BioAssay AID1487 (National Center for Advancing Translational Sciences (NCATS), 2009).)
